Assay results taken from article PMC5687603.
Results are given in words; binding and its absence hold for the method and conditions named. In cells and extracts the contact can be indirect. These calls come from enrichment with a bait or labelling near it, and not all partners need be listed. Where a sequence is shown, tags or fusion partners need not be part of it.

The chains behind the UniProt entries cited, without tags or fusion partners. Residues count along the entry.
UniProt Q03265, residues 44-553: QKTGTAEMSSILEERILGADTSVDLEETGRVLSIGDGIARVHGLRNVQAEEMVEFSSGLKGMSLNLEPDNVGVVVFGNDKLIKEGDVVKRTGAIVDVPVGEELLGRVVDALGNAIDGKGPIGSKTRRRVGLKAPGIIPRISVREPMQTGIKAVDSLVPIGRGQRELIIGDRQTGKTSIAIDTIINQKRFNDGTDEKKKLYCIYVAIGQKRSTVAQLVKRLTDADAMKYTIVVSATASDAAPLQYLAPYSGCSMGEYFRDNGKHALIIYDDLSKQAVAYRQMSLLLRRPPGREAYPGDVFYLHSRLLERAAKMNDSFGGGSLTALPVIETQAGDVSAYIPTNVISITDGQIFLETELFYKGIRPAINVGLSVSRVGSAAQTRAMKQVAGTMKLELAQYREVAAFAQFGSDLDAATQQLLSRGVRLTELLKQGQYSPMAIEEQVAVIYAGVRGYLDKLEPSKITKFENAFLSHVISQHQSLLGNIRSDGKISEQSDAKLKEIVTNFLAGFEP
UniProt P99024: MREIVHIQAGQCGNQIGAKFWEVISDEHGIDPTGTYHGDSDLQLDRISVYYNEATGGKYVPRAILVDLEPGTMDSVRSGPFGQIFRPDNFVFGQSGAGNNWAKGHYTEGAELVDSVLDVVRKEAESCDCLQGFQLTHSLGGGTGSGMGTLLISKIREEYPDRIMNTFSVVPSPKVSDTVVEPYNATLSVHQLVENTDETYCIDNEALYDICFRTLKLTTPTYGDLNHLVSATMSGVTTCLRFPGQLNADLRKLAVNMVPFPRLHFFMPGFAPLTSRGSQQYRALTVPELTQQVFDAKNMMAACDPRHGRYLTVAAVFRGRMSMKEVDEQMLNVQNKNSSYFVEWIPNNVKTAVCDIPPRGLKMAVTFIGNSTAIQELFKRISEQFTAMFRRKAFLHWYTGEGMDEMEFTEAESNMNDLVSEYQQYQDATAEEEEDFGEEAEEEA
UniProt P56480, residues 47-529: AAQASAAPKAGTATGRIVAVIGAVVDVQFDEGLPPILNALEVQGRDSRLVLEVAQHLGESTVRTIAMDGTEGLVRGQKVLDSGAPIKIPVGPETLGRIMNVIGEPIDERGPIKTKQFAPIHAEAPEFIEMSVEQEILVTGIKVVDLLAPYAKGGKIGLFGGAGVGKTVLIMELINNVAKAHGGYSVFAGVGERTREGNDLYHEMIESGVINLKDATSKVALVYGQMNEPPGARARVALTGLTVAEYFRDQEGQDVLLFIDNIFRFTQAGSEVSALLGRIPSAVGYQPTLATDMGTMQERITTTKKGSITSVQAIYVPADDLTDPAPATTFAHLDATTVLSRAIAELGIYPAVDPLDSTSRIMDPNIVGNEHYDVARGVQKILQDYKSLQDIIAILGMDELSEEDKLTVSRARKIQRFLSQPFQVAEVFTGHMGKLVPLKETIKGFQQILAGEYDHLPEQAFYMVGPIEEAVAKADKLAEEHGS
UniProt P05213: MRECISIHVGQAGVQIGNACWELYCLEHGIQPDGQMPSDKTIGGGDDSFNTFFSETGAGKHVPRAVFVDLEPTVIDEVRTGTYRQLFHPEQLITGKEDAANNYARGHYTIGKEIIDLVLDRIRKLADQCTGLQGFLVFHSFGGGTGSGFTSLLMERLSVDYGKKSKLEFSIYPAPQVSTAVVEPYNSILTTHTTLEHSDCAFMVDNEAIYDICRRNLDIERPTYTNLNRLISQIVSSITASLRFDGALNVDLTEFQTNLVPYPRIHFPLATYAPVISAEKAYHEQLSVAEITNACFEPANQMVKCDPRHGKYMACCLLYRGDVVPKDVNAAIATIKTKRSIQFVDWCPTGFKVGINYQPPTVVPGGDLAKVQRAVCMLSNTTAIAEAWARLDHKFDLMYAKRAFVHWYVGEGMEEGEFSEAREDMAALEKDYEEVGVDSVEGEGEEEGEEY

T1: recombinant mouse short-form Klotho with C-terminal Flag and 6xHis (mIMCD) (mouse) (UniProt O35082)
T1 sequence: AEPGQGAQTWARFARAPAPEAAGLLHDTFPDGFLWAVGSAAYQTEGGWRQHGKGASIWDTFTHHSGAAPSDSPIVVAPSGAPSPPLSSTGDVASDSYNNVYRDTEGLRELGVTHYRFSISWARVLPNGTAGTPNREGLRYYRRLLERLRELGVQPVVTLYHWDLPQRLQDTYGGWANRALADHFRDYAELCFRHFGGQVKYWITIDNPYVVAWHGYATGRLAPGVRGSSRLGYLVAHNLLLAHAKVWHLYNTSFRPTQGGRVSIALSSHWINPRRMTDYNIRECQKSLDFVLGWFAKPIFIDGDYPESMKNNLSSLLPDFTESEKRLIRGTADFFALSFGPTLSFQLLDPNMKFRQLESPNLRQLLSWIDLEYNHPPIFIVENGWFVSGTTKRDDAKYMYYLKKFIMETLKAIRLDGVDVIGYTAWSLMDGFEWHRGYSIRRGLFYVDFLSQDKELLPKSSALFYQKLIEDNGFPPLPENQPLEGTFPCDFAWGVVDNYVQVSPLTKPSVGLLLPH

T2: recombinant mouse short-form Klotho with C-terminal Flag and 6xHis (HEK293) (mouse) (UniProt O35082)
T2 sequence (chain, N-glycosylated at N161, N285 and N346): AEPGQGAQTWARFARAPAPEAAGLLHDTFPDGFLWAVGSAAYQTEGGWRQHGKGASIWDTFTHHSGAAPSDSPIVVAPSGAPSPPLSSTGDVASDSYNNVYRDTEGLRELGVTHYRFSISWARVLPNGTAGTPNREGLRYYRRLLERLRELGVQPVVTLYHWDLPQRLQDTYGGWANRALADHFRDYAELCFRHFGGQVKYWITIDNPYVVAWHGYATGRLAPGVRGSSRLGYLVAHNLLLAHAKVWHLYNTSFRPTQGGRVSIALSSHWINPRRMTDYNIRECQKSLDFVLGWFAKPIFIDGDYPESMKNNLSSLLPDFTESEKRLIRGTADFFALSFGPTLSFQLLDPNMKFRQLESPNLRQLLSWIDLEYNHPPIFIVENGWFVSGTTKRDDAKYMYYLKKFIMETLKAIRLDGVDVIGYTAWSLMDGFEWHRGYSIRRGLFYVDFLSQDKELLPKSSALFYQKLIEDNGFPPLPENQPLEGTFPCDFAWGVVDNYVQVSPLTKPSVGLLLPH


Biological target: T1, recombinant mouse short-form Klotho with C-terminal Flag and 6xHis (mIMCD) (mouse)
Assay: affinity purification with mass spectrometry; lysates of mIMCD cells expressing Skl-Flag-6xHis, Klotho or Flag antibody on IP-Direct beads, low-pH elution, SDS-PAGE, in-gel trypsin digest, nano-LC-nano-ESI MS/MS, Mascot search of Swiss-Prot; compared with control cells

Row | binding | Molecule
1 | binds | ATP synthase subunit alpha, mitochondrial (from UniProt Q03265 44-553)
2 | binds | Tubulin beta-5 chain (from UniProt P99024 1-444)
3 | binds | ATP synthase subunit beta, mitochondrial (from UniProt P56480 47-529)
4 | binds | Tubulin alpha-1B chain (from UniProt P05213 1-451)
5 | binds | S-formylglutathione hydrolase (mouse, mIMCD) (enzyme, UniProt Q9R0P3 1-282) MALKQISSNRCFGGLQKVFEHSSVELKCKMRFAVYLPPQAESGKCPALYWLSGLTCTEQNFISKSGYQQAASEHGLVVIAPDTSPRGCNIKGEDDSWDFGTGAGFYVNATEDPWKANYRMYSYVTEELPQLINANFPVDPQRMSIFGHSMGGHGALICALKNPGKYRSVSAFAPICNPVLCSWGKKAFSGYLGPDESKWKAYDATCLVKAYSGSQIDILIDQGKDDEFLSNGQLLPDNFIAACTEKKIPVVFRLQEGYDHSYYFIATFIADHIRHHAKYLNA
6 | binds | Alpha-crystallin B chain (protein, UniProt P23927 1-175) MDIAIHHPWIRRPFFPFHSPSRLFDQFFGEHLLESDLFSTATSLSPFYLRPPSFLRAPSWIDTGLSEMRLEKDRFSVNLDVKHFSPEELKVKVLGDVIEVHGKHEERQDEHGFISREFHRKYRIPADVDPLTITSSLSSDGVLTVNGPRKQVSGPERTIPITREEKPAVAAAPKK

Biological target: T2, recombinant mouse short-form Klotho with C-terminal Flag and 6xHis (HEK293) (mouse)
Assay: affinity purification with mass spectrometry; lysates of HEK293 cells expressing Skl-Flag-6xHis, Klotho or Flag antibody on IP-Direct beads, low-pH elution, SDS-PAGE, in-gel trypsin digest, nano-LC-nano-ESI MS/MS, Mascot search of Swiss-Prot; compared with control cells

Row | binding | Molecule
7 | binds | Retrotransposon-like protein 1 (protein, UniProt A6NKG5 1-1358) MIEPSEDSFETMMEHKNPSSKQMESSEGSSNTTEATSGSGVRGEAGPASGPAQEKKEPPSGPLQEMEELPTDLLQDMEEPSSGPRKEIEDPPNDLLQDLEESCNGSHQARGDPLSGASDRMKEASVNPSGAREEQEAHTDLKESGREETPQEQNQTEHSTAELMAMVRSIISLYFRMQDLKEQQRVAEEILIKGINAGQLPAPKHFSGDRREFHEFIVLCQLTLQSYPRMFYNDRLRVGYVINHLSGLALEWAKALLQENSPLIGDFPAFLEAMSEVFEYRQALRVAEEAMFTIRQGGRSATEYIDEFQSLVPILGWPDEVLQAHLCQGLNEEIRHYLFRVPQPDSLDSLIVLILQIEEKLAERRAMLRLPPEARPRNLTWIDSPAPERWMVSSWLPSEVHPDINRAHLFLLLMVRVNPYHSVAVQALVDSGADGNFMDEKFAQEHYVELYEKPYPQPVQSVDGSLIGNEPVWLYTEPLVCIHQNHQESIEFDIVPSPNFSVVLGIRWLRVHAPEVDWIKGRCTFHSPYCLKNCFRPPPPCIALERHGMSLLPGLPHPYSDLADVFNPKEADDETSDQPSSDGSDDLSESEPSELQQAGDSDHSETFYECPSTAPWEPVGARMQERARLQEEYWDLQDMLTNRQDYIQMIPELFDQLHGAEWFTKLELRGTIVEESVNGHRTEDVWKAAFGLELEEMKSYQPFALSPDPIIPQNVIHFILKDMLGFFVLSYGQEVLIYSMSQEEHLHHVRQVLVRFRHHNVYCSLDKSQFHRQTVEFLGFVVTPKGVKLNKNVMTIITGYPTPGSKLSLRNFIEFVFPYRHFVERFSIIAEPLVRQLLSSYQFYWGVEEQEAFECLKRAFRKAPLLHHPKPQNPFYLETGVTGTALHASLIQIDDQTGKRACCAFYSRNISPIEVEYSQAEMKILPIRAAFMVWCRYLENTEEPIMILLNTEDLASLNNDRLTVLLPGHWVFFFSHFNFDVMELPEQDGGRALPPVRNLRWRRAFQRNTAARQTLLLASRGFPRDPSTESGEEENEEQDELNEQILRQELLAMIPIDQILNSFLAHFSMAQIRAVILHFFRGLLYWKNTLALAAILVLLRVRQCLSLRPAPAMRVARPQPQRSLRLILDSSLIAGSSITTAITQLLTQMPALVGANTIPAQELAELFLGPGRWQRNALHSQAHRGLQFTPGFWLTLCEFFGVRVTPQEGHLPALRQNRYLELHVVGDEDVVLREALQDDLQRYRQCGLHDGLQDTSQDKQDNDVQEAPPSHTAATHPPRPRHLMDPQVLEFLGSRLLHIHSADGQLHLLSREQAARALSQFLTLIYRRALPIPAWESQPREQARLEELPDEDEDANLD
8 | binds | S-formylglutathione hydrolase (human, HEK293) (enzyme, UniProt P10768 1-282) MALKQISSNKCFGGLQKVFEHDSVELNCKMKFAVYLPPKAETGKCPALYWLSGLTCTEQNFISKSGYHQSASEHGLVVIAPDTSPRGCNIKGEDESWDFGTGAGFYVDATEDPWKTNYRMYSYVTEELPQLINANFPVDPQRMSIFGHSMGGHGALICALKNPGKYKSVSAFAPICNPVLCPWGKKAFSGYLGTDQSKWKAYDATHLVKSYPGSQLDILIDQGKDDQFLLDGQLLPDNFIAACTEKKIPVVFRLQEGYDHSYYFIATFITDHIRHHAKYLNA
